The other results are listed elsewhere or left out. Further columns of the screen follow, without active or inactive calls. The list favours compounds with an active or inconclusive main result. Potencies come from curve fits of mixed quality, noted in brackets.
Assay: qHTS Assay to Find Inhibitors of Chronic Active B-Cell Receptor Signaling
Details: ABC-DLBCL IkBa-CBG/CBR reporter, luminescence ratio (green luciferase fused to IkBa over red control in TMD8 lymphoma cells), 4 h
Method in brief: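 Doxycycline induced both beetle luciferases in TMD8 lymphoma cells; IKK-driven degradation limits the IkappaBalpha-fused green signal, while red luminescence normalises for cell number and nonspecific effects. Compounds tested up to 46 uM, 4 hrs.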

[1] = measured here: CBR red luminescence, cell number
[2] = measured here: IkBa-CBG green luminescence

| SMILES | AC50 [1] | AC50 [2] |
| --- | --- | --- |
| O=C(CCc1ccccc1)NNC(=S)NC(=O)c1ccc(Cl)cc1 | 3.26 µM [rising, single point] | – |
| C=CCNC(=O)c1onc(CSc2ccc(F)c(F)c2)c1C(=O)O | 0.251 µM [falling, full curve, poor fit] | – |
| O=C(CCCCCNc1nc(=S)[nH]c2ccccc12)NCCc1c[nH]c2ccccc12 | 10.3 µM [falling, partial curve, poor fit] | – |
| CCc1ccc(-c2cc(C)no2)cc1S(=O)(=O)N1CCCN(Cc2ccc(F)cc2)C1 | 11.2 µM [falling, partial curve, poor fit] | – |
| CC(Oc1ccc2c(-c3ccccc3)cc(=O)oc2c1)C(=O)NCc1ccccn1 (configuration not stated) | 17.8 µM [rising, single point] | – |
| O=C(NCCc1cccs1)C1CC(c2cccc(F)c2)=NO1 (configuration not stated) | 35.5 µM [falling, single point] | – |
| CCN=c1scc(C)n1/N=C/c1cc(Br)c(O)c(OC)c1 | 0.501 µM [rising, partial curve, poor fit] | – |
| CCOC(=O)c1sc(NC(=O)CCc2ccccc2)nc1C | 0.316 µM [falling, full curve, poor fit] | – |
| c1ccc(C2Oc3ccccc3C3CC(c4cccs4)=NN32)cc1 (configuration not stated) | 29.1 µM [falling, single point] | – |
| Cc1ccc(S(=O)(=O)CCSc2cccc(C(=O)Nc3ccccc3C(=O)O)c2)cc1 | 2.06 µM [falling, full curve, poor fit] | – |
| COc1ccc(S(=O)(=O)Nc2ccc3oc(C)c(C(C)=O)c3c2)cc1 | 2.59 µM [falling, single point] | – |
| Cc1cc(Br)c2c(c1)/C(=C/C(=O)c1cccs1)C(=O)N2 | 35.5 µM [falling, single point] | 35.5 µM [rising, partial curve, poor fit] |
| CN(C)CC/C=C1\c2cc(F)ccc2CSc2ccccc21 | 20.6 µM [falling, partial curve] | – |
| CCCCCCCN(C(=O)CCl)c1cccc(C)c1 | 23.1 µM [falling, single point] | – |
| Cc1cccc(C(=O)Nc2ccc(NC(=O)c3ccccc3)cc2)c1 | 25.1 µM [falling, single point] | – |
| O=C(COC(=O)c1n[nH]c2ccccc12)Nc1ccccc1F | 16.4 µM [falling, partial curve] | – |
| O=C(CN1CCOCC1)NNc1nc(-c2ccccc2)c2cc(Br)ccc2n1 | 2.24 µM [falling, full curve] | – |
| CCOc1ccccc1N1CCN(C(=O)c2ccccc2SCC(=O)N2CCCC2)CC1 | 14.1 µM [rising, partial curve, poor fit] | – |
| CCOC(=O)CN1CC23C=CC(O2)C(C(=O)NCc2ccc(F)cc2)C3C1=O (configuration not stated) | 29.1 µM [rising, single point] | – |
| O=C(O)C1C2C=CC(CC2)C1C(=O)O (configuration not stated) | 3.26 µM [rising, single point] | – |

| SMILES | AC50 [1] | AC50 [2] |
| --- | --- | --- |
| COc1cc(C2CC(=O)Oc3c(C(CCN4CCN(c5ccccc5)CC4)c4ccc(N(C)C)cc4)c(OC)cc(OC)c32)cc(OC)c1OC (configuration not stated) | 0.501 µM [rising, partial curve, poor fit] | – |
| Cc1ccc(NC(=O)C(=O)C2C(=O)Nc3ccccc32)cc1 (configuration not stated) | 14.1 µM [falling, partial curve, poor fit] | – |
| CCCc1cc(=O)n2[nH]c(CCc3ccccc3)nc2n1 | 5.62 µM [falling, partial curve] | – |
| CCCCSc1nnc(-c2cc(Br)ccc2N)c(=O)[nH]1 | 1.3 µM [rising, full curve, poor fit] | – |
| COC(=O)c1cc2c(ccn2-c2ccc(F)cc2)n1CC(=O)N1CCN(C(=O)c2ccco2)CC1 | 29.1 µM [rising, single point] | – |
| S=C(Nc1ccc(Nc2ccccc2)cc1)Nc1ccccn1 | 14.1 µM [falling, partial curve] | 35.5 µM [rising, partial curve, poor fit] |
| O=S(=O)(Cc1noc(-c2ccccc2Cl)n1)c1ccccn1 | 20 µM [rising, partial curve] | – |
| O=C(O)CSCc1cn2cc(Cl)ccc2n1 | 29.1 µM [falling, single point] | – |
| N#C/C(=C\c1cn(Cc2ccccc2)c2ccccc12)C(=O)NCc1ccco1 | 7.31 µM [rising, partial curve] | – |
| CCc1noc(C)c1C(=O)Nc1nc2ccc(S(C)(=O)=O)cc2s1 | 10.3 µM [falling, partial curve] | – |
| CC(=O)Nc1ccc(N2C(=O)CSC2c2cccc([N+](=O)[O-])c2)cc1 (configuration not stated) | 35.5 µM [rising, partial curve, poor fit] | – |
| Cc1ccccc1N1C(=O)c2sc3nc4c(c(=O)n3c2C1=O)CCC4 | 8.91 µM [falling, partial curve] | – |
| COc1ccccc1NC(=O)Nc1nc(CC(=O)NCc2ccccn2)cs1 | 0.651 µM [rising, partial curve, poor fit] | – |
| Clc1ccc(SCc2cc(-c3ccccc3)on2)cc1 | 0.231 µM [rising, full curve, poor fit] | – |
| CC(C)(C)c1nnc(NS(=O)(=O)c2ccc([N+](=O)[O-])cc2)s1 | 25.1 µM [rising, partial curve, poor fit] | – |
| O=C1C2C(c3cccc(/C=C/c4ccccc4)c3)CC=CC2C(c2ccc3ccccc3c2)N1Cc1ccccc1 (configuration not stated) | 17.8 µM [rising, single point] | – |
| O=C(NCCO)c1nc2ccccc2s1 | 5.17 µM [falling, partial curve] | – |
| CC(C)Cn1c(N)c(C(=O)COC(=O)c2cc(C3CC3)nc3ccccc23)c(=O)n(C)c1=O | 29.1 µM [falling, single point] | – |
| CCOC(=O)c1c(NC(C)=O)sc(/C(C)=N/Nc2ccc(C(=O)O)cc2)c1C | 0.251 µM [falling, full curve] | – |
| CCOC(=O)c1c(NC(=O)c2cccnc2Cl)sc(C(=O)N(C)C)c1C | – | 20.6 µM [falling, single point] |

Reprinted from above for reference:

| SMILES | AC50 [1] | AC50 [2] |
| --- | --- | --- |
| O=C1C2C(c3cccc(/C=C/c4ccccc4)c3)CC=CC2C(c2ccc3ccccc3c2)N1Cc1ccccc1 (configuration not stated) | 17.8 µM [rising, single point] | – |
| O=C(NCCO)c1nc2ccccc2s1 | 5.17 µM [falling, partial curve] | – |

From PubChem BioAssay AID493014 (National Center for Advancing Translational Sciences (NCATS), 2011)
